{"source": "PubChem BioAssay AID743121 (NCATS, 2013)", "test": "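Genes whose silencing strengthens cell killing by camptothecin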 (primary screen)", "cell system": "MDA-MB-231 cells, a human breast cancer line", "reagent": "single siRNA against human genes, 20 nM siRNA (0.8 pmol per well)", "time to read-out": "120 h (drug added 48 h after transfection, read 72 h later)", "treatment": "camptothecin 20 nM (about EC30) for 72 h; vehicle 0.1% DMSO in parallel plates", "measurement": "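Cell viability by ATP luminescence (CellTiter-Glo) as % of non-targeting siRNA wells, and the log2 ratio of viability without drug over viability with camptothecin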", "direction": "log2 vehicle/camptothecin viability: higher = stronger sensitisation to camptothecin", "call rule": "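Active genes have an RSA gene-level p-value below 0.001, computed from the ratios of their separate siRNAs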", "note": "Here is a random part of about 26,000 reagents. In the full data, 167 (0.63%) were called active. 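Calls are per gene from RSA p-values that are not deposited; an individual active-marked siRNA can sensitise only weakly.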 Unmarked entries are inactive. Reagents against one gene are numbered here. Further read-outs or replicates are left out here."}
{"gene": "BRAF (B-Raf proto-oncogene, serine/threonine kinase)", "siRNA no.": 1, "log2 vehicle/camptothecin viability": 0.00985}
{"gene": "BRAF (B-Raf proto-oncogene, serine/threonine kinase)", "siRNA no.": 2, "log2 vehicle/camptothecin viability": -0.181}
{"gene": "BRAF (B-Raf proto-oncogene, serine/threonine kinase)", "siRNA no.": 3, "log2 vehicle/camptothecin viability": 0.0354}
{"gene": "BRAF (B-Raf proto-oncogene, serine/threonine kinase)", "siRNA no.": 4, "log2 vehicle/camptothecin viability": -0.292}
{"gene": "PTPRJ (protein tyrosine phosphatase receptor type J)", "siRNA no.": 1, "log2 vehicle/camptothecin viability": -0.112}
{"gene": "PTPRJ (protein tyrosine phosphatase receptor type J)", "siRNA no.": 2, "log2 vehicle/camptothecin viability": -0.0273}
{"gene": "PTPRJ (protein tyrosine phosphatase receptor type J)", "siRNA no.": 3, "log2 vehicle/camptothecin viability": -0.437}
{"gene": "PTPRJ (protein tyrosine phosphatase receptor type J)", "siRNA no.": 4, "log2 vehicle/camptothecin viability": -0.415}

The list goes on (2 carried over from the part before).
{"gene": "PTPRJ (protein tyrosine phosphatase receptor type J)", "siRNA no.": 3, "log2 vehicle/camptothecin viability": -0.437}
{"gene": "PTPRJ (protein tyrosine phosphatase receptor type J)", "siRNA no.": 4, "log2 vehicle/camptothecin viability": -0.415}
{"gene": "HKDC1 (hexokinase domain containing 1)", "siRNA no.": 1, "log2 vehicle/camptothecin viability": -0.0796}
{"gene": "HKDC1 (hexokinase domain containing 1)", "siRNA no.": 2, "log2 vehicle/camptothecin viability": 0.259}
{"gene": "HKDC1 (hexokinase domain containing 1)", "siRNA no.": 3, "log2 vehicle/camptothecin viability": -0.195}
{"gene": "HKDC1 (hexokinase domain containing 1)", "siRNA no.": 4, "log2 vehicle/camptothecin viability": -0.352}
{"gene": "HGD (homogentisate 1,2-dioxygenase)", "siRNA no.": 1, "log2 vehicle/camptothecin viability": -0.0659}
{"gene": "HGD (homogentisate 1,2-dioxygenase)", "siRNA no.": 2, "log2 vehicle/camptothecin viability": -0.39}
{"gene": "HGD (homogentisate 1,2-dioxygenase)", "siRNA no.": 3, "log2 vehicle/camptothecin viability": 1.4}
{"gene": "HGD (homogentisate 1,2-dioxygenase)", "siRNA no.": 4, "log2 vehicle/camptothecin viability": -0.174}
